Primary screen of a compound library

Sequences of proteins named here, by UniProt entry; tags and fusion partners are left off. Residues count along the entry.
UniProt Q4DA54, 1-478: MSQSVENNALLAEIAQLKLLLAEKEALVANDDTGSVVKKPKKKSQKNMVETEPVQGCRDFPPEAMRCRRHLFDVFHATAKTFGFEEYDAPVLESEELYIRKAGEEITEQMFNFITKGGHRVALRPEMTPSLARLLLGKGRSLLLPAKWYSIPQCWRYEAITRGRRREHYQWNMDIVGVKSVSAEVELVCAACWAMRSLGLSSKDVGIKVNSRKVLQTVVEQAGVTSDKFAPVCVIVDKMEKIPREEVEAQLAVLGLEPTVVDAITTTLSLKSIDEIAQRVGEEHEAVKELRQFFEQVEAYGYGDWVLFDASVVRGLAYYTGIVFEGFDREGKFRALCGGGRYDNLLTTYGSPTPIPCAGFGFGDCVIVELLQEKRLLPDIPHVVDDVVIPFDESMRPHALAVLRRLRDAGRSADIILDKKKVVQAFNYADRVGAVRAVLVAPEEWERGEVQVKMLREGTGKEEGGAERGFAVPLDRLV
UniProt P9WNZ1, whole entry: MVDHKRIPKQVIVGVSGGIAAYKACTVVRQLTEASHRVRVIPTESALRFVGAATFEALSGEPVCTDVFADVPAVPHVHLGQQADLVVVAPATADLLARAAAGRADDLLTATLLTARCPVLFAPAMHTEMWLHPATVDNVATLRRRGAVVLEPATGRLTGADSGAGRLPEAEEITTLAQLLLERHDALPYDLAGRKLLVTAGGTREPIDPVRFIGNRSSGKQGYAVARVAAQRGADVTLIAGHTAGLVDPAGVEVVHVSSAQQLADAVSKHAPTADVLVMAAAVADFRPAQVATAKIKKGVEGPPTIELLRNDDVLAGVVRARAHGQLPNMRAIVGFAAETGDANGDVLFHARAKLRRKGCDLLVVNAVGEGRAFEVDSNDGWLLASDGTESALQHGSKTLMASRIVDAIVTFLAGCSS

The filed quantity is “Percent Effect” (%).
The controls that fix the scale are not given in the record; negative values are as filed.
Compounds were drawn at random from those tested, without regard to their results.
Two or more numbers in one place are separate tests of the same structure; such repeats can differ widely.
A dash means the value is not listed here; it may have been measured.

TcHisRS: 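Histidine-tRNA ligase, Trypanosoma cruzi CL Brener (UniProt Q4DA54). Enzyme assay of histidyl-tRNA synthetase; the read-out is not stated. Compounds at 30 µM. Direction is inferred from retests: higher values go with stronger inhibition. Of about 69,000 compounds tested this way, about 31 (0.045%) reached 50% or more in at least one test.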
CoaBC: 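Enzyme assay of CoaBC with a phosphate dye (Biomol Green) read at 650 nm. Target: Coenzyme A biosynthesis protein CoaBC, Mycobacterium tuberculosis (UniProt P9WNZ1). Compounds at 30 µM. Direction is inferred from only a few compounds that gave an IC50; most scored high, so higher reads as stronger inhibition. Most strong results did not repeat in a second test. Size under these conditions: about 67,000 compounds, about 40 of them at 50% or above in at least one test.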

| structure | TcHisRS | CoaBC |
|---|---|---|
| `O=C(c1nnn(-c2ccc(F)cc2)n1)N(CCO)Cc1ccccc1` | 3.704% | 8.549% |
| `O=C(C1CCOCC1)N1C[C@@H]2OCCN(CCN3CCCC3)[C@@H]2C1` | 7.362% | - |
| `O=C(CCCN1CCOCC1)N1CCCC(CO)(CC2CC2)C1` (stereo not given) | 2.051% | -3.444% |
| `COC(=O)c1sccc1S(=O)(=O)NCCc1ccoc1` | 1.031% | -4.017% |
| `Cc1cc(N2CCCC(OC(=O)CCN3CCCC3=O)C2)nc(C)n1` (stereo not given) | 2.762% | -1.831% |
| `COc1ccc(C2(NC(=O)CCn3cncn3)CCCCC2)cc1` | -2.703% | 2.5% |
| `COc1ccccc1CNC(=O)CNCCn1cc(C)cn1` | 4.046% | 4.824% |
| `O=C(c1ccc(F)cc1Cl)N1CCn2c(nnc2C(F)(F)F)C1` | 6.404% | -1.266% |
| `Cc1cc(CNC(=O)NC(C)c2ccc(N3CCOCC3)cc2)no1` (stereo not given) | -0.8368% | 11.36% |
| `CNS(=O)(=O)CCCN1CCCN(Cc2ccccc2)CC1C` (stereo not given) | 0% | -38.22% |
| `O=S(=O)(c1ccc(F)cc1)N1CCCC(c2nccs2)C1` (stereo not given) | 2.239% | 0.4866% |
| `Cc1cccc(CN2CCC(c3nnsc3S(C)(=O)=O)CC2)c1` | 12.22% | 1.695% |
| `Cc1ccc(CN2CCC(NC(=O)c3scnc3C)CC2)cc1` | 7.493% | 4.318% |
| `Cn1/c(=N/C(=O)CSCC(=O)Nc2nccs2)sc2ccccc21` | 4.124% | 1.903% |
| `O=C(COc1coc(CN2CCOCC2)cc1=O)Nc1ccc(Cl)cc1` | 4.094% | 1.515% |
| `Cc1noc(C)c1CN1C[C@@H]2CCCO[C@@H]2[C@H](Nc2ccccn2)C1` | 7.477% | -8.148% |
| `COc1cc(CN2CCN(c3cccc(OC)c3)C(=O)C2)cc(OC)c1` | 6.504% | 0.4219% |
| `OCc1csc(N2CCCN(Cc3ccc(F)cc3)CC2)n1` | 11.76% | 0.2457% |
| `Cc1cnn(CCC(=O)N2CCCC(c3noc(C)n3)C2)c1` (stereo not given) | 1.143% | -1.434% |
| `Cc1cccc(-c2cc(C(=O)O)sn2)c1` | 3.093% | 32.55% & 9.794% |
| `CNS(=O)(=O)c1cccc(C(C)NCc2nccn2C(C)C)c1` (stereo not given) | -1.604% | 4.348% |
| `Cc1nc(C)n(CC2CCCCN2Cc2nc(-c3ccco3)no2)n1` (stereo not given) | 5.325% | 9.506% |
| `Cc1ccc(-c2nc(CN3CCn4c(nnc4C4CC4)C3)co2)c(C)c1` | 3.955% | 2.089% |
| `COc1ccc(CC(C)Nc2cccc(F)c2)cc1` (stereo not given) | 2.01% | -2.265% |
| `COCC(=O)N1CCC(c2cc(-c3ccc(C)cc3)n[nH]2)C1` (stereo not given) | 6.202% | 3.804% |
| `CCC(=O)NC(C)c1ccccc1C` (stereo not given) | 6.03% | 0.3236% |
| `COc1cccc(C(C(=O)O)N2CCCN(c3ccnc(C)c3)CC2)c1` (stereo not given) | 7.692% | 1.242% |
| `CCn1c(CN2CCCN(C(=O)OC)CC2)nc2c(F)cccc21` | 7.224% | -1.064% |
| `Cc1nccn1CCN(C)C(=O)C1CCN(C(=O)C2CCC2)CC1` | 2.4% | 2.381% |
| `CCn1ncnc1C(C)NC(=O)C1CCN(Cc2ccco2)CC1` (stereo not given) | 9.783% | -0.4673% |
| `CCCN(C)CC1CCN(c2ncc(Br)cn2)C1` (stereo not given) | 5.419% | 0.3165% |
| `Cn1cc(C(NCCc2ccccn2)c2cccc(F)c2)cn1` (stereo not given) | 0% | -3.089% |
| `CNC(=O)c1cc2c(nc1NCC1CC1)CCN(c1ccncn1)CC2` | -3.825% | -2.288% |
| `Cc1nc(C)c(CC(=O)N2C[C@@H]3CC[C@H](C2)N(CC2CC2)C3)s1` | -5.814% | 6.009% |
| `COc1cc(NCc2cccnc2)c(-c2nn[nH]n2)cc1OC` | 10.27% | 6.122% |
| `O=C1N(C2CCCCC2)C[C@H]2CN(C3CCC3)CCN12` | -2.488% | 15.91% |
| `CC(CC(=O)NS(=O)(=O)c1ccc2c(c1)OCCO2)c1ccc(F)cc1` (stereo not given) | -2.5% | 8.211% |
| `O=C(CC1CCCC1)N[C@H]1CN(Cc2c[nH]cn2)C[C@@H]1C1CC1` | 9.827% | 4.963% |
| `CC(C)(C)c1ncc2c(n1)CN(C(=O)c1ccc(-n3cnnn3)cc1)C2` | 8.163% | 2.788% |
| `Cn1cccc1CN1CCC2(CC1)CN(c1ncccn1)CCO2` | 9.901% | -18.76% |
| `COc1ccc2c(c1)nc1n2[C@@H](CNCc2nccs2)COC1` | 9.901% | 0.6772% |
| `Cc1nn(C)c(N(C)C)c1CNCc1cnn(Cc2ccccc2)c1` | 1.163% | 1.717% |
| `COc1ccccc1OCC(=O)NS(=O)(=O)c1ccc(Br)s1` | -0.3802% | -2.635% |
| `Cc1c(Br)cc2c(c1C)OCC(N(C)C)C2=O` (stereo not given) | 1.156% | -4.785% |
| `Cc1noc(C)c1-c1cncc(CC2CCN(C(=O)c3cc[nH]n3)C2)n1` (stereo not given) | 7.447% | 1.716% |
| `CNC(=O)Cc1noc(-c2cc3c(s2)CCC(C)C3)n1` (stereo not given) | -0.9804% | 0.9569% |
| `Cc1nn(C)cc1CN1C[C@@H]2CC[C@H](C1)N(Cc1c(C)noc1C)C2=O` | -32.8% | -2.564% |
| `COC(=O)C(NC(=O)C1CCCC1)c1cc(F)ccc1F` (stereo not given) | 1.143% | 1.195% |
| `C[S+]([O-])CCNC(=O)N1CCN(c2cc(F)ccc2F)CC1` (stereo not given) | 0.8696% | 8.051% |
| `CC(C)N1CCC(c2nc3ccc(-c4ccnn4C)cn3n2)CC1` | -2.857% | 0.1233% |
| `CC(C)Cc1cc(C(=O)NCCc2nnc(N)s2)n(C)n1` | 14.46% | 2.97% |

The first 6 entries again:

{"structure": "O=C(c1nnn(-c2ccc(F)cc2)n1)N(CCO)Cc1ccccc1", "TcHisRS": 3.704, "CoaBC": 8.549}
{"structure": "O=C(C1CCOCC1)N1C[C@@H]2OCCN(CCN3CCCC3)[C@@H]2C1", "TcHisRS": 7.362}
{"structure": "O=C(CCCN1CCOCC1)N1CCCC(CO)(CC2CC2)C1", "stereo": "stereo not given", "TcHisRS": 2.051, "CoaBC": -3.444}
{"structure": "COC(=O)c1sccc1S(=O)(=O)NCCc1ccoc1", "TcHisRS": 1.031, "CoaBC": -4.017}
{"structure": "Cc1cc(N2CCCC(OC(=O)CCN3CCCC3=O)C2)nc(C)n1", "stereo": "stereo not given", "TcHisRS": 2.762, "CoaBC": -1.831}
{"structure": "COc1ccc(C2(NC(=O)CCn3cncn3)CCCCC2)cc1", "TcHisRS": -2.703, "CoaBC": 2.5}

Source: ChEMBL document CHEMBL3988442, “University of Dundee, Small-Polar-MMV Screening Library” (2021).